Earlier results in US20030181426A1, “Compositions and methods for treating pain using cyclooxygenase-1 inhibitors” (priority 2002, published 2003).
Where two headings read alike, the source gives them in different places. At least one compound was matched to its structure with a doubt left.

Tests used:
[1] = test system: nociceptive responses; details: mice with paw inflammation; Mazario et al. 2001; cited from earlier work
[2] = test system: nociceptive responses; details: normal and monoarthritic rats; Mazario et al. 2001; cited from earlier work
[3] = test system: formalin-evoked nociceptive behavior; details: Tegeder et al. 2001, cited from earlier work

Cc1ccc(-c2cc(C(F)(F)F)nn2-c2ccc(S(N)(=O)=O)cc2)cc1 [celecoxib]
reduction of nociceptive responses [1]: no effect
reduction of nociceptive responses [2]: no effect
formalin-evoked nociceptive behavior [3]: no significant effect
spinal PGE(2) release ([3]; formalin-evoked): no significant effect
